Laboratory results from paper PMC12733700.
No constants are given. Whether binding was seen depends on the method and setting. Binding seen in cells or lysates may run through a third protein. Some entries that bind do so weakly or less than the wild type.

Amino acid sequences for entries named in this document (tags omitted).
UniProt P55264: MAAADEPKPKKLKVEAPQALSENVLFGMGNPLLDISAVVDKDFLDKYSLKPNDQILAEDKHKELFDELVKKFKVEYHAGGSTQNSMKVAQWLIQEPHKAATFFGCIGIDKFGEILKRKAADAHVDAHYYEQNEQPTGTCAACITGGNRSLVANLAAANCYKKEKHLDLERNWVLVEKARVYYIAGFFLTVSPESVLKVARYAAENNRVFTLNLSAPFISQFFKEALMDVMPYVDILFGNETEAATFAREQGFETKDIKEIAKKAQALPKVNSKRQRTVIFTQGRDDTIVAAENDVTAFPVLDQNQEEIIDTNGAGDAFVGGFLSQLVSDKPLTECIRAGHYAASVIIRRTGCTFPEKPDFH
UniProt P10085: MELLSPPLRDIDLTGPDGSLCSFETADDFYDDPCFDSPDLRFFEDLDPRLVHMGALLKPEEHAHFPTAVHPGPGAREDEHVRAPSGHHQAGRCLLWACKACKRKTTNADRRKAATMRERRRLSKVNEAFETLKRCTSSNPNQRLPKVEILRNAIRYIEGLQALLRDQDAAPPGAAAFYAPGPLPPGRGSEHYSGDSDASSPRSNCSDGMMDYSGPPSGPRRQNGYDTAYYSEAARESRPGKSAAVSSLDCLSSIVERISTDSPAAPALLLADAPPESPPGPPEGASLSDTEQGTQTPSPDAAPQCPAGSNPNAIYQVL

Assays:
[1] = biological target: adenosine kinase (mouse (endogenous in C2C12 and in C57BL/6 tibialis anterior muscle)) (UniProt P55264); test: co-IP; total protein from mouse TA muscles 5 days after cardiotoxin injection in RIPA lysis buffer, precleared with anti-species-specific IgG beads, incubated with PFKFB3 and ADK antibodies for 3 h at 4 °C, then protein A/G agarose beads; Western blotting
[2] = biological target: T1, 6-phosphofructo-2-kinase/fructose-2,6-biphosphatase 3 (mouse (endogenous in C2C12 and in C57BL/6 tibialis anterior muscle)) (UniProt Q7TS91); test: as above
T1 sequence: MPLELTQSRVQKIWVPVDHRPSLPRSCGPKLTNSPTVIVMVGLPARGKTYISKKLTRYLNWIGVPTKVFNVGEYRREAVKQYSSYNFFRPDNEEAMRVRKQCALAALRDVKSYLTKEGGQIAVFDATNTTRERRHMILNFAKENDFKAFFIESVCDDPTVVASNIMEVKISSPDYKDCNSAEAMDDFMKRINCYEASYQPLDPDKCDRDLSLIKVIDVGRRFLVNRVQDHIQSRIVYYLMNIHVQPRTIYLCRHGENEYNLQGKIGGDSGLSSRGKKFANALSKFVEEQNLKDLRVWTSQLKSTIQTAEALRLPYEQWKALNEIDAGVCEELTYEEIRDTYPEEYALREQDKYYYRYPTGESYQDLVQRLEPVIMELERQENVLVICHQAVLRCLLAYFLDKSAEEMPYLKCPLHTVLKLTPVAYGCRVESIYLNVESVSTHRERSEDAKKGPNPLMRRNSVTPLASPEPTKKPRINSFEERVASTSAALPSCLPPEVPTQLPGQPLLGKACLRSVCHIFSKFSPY

[3] = biological target: T1, 6-phosphofructo-2-kinase/fructose-2,6-biphosphatase 3 (mouse (endogenous in C2C12 and in C57BL/6 tibialis anterior muscle)); test: co-IP; total protein from C2C12 cells in RIPA buffer, precleared with anti-species-specific IgG beads, incubated with antibody, then protein A/G agarose beads; Western blotting

MYOD1 (from UniProt P10085 1-318)
binding [1]: no binding
binding [2]: binds

adenosine kinase (from UniProt P55264 1-361) (enzyme)
binding [2]: binds
binding [3]: binds
